Results taken from patent publication US20160024213A1 (VIB VZW, published 2016).
Results are given in words; binding and its absence hold for the method and conditions named. Some results given as binding are weak or reduced against the parent protein; the word gives no strength.

T1: Recombinant human MMR (R&D Systems) (human, UniProt P22897 19-1383)
T1 construct: Bought from R&D Systems; also called hMMR; recombinant hMMR
T1 sequence: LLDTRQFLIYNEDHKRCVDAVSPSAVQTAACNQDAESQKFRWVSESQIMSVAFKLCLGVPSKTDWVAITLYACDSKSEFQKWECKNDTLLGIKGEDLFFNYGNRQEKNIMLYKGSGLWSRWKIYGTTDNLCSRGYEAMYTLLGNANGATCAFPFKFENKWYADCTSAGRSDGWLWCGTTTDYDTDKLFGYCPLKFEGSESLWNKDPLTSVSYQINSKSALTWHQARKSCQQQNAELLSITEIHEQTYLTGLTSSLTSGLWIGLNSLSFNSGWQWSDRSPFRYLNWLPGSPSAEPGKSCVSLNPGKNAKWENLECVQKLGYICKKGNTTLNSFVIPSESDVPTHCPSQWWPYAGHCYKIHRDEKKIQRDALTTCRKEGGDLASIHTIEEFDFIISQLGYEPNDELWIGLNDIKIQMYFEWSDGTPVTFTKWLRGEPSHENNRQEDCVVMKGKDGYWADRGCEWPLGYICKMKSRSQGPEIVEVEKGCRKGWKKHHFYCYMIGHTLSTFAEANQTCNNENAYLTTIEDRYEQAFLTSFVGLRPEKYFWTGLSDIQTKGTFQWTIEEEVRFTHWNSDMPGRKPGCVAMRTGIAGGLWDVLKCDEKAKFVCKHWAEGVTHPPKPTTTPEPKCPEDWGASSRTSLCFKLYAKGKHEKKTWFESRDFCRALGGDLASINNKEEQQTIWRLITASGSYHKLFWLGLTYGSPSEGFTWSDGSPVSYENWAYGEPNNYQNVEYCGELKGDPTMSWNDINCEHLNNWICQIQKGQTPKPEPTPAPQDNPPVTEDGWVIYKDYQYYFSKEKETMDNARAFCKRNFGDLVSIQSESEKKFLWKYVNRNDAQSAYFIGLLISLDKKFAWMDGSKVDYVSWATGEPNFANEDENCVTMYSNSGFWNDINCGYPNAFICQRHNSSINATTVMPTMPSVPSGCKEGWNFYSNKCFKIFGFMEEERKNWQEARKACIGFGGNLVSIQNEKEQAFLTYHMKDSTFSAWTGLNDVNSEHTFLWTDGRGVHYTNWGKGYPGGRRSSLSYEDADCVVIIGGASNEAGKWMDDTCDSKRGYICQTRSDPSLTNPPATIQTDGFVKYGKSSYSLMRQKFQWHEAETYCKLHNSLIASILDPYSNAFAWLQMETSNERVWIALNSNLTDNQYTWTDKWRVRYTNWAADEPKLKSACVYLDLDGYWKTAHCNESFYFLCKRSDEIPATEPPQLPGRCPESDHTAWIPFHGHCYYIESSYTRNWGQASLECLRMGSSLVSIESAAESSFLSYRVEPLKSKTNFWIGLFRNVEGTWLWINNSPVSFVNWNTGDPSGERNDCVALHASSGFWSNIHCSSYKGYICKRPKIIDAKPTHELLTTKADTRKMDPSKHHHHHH

T2: Human MMR (MRC1) expressed on cells (human) (UniProt P22897)
T2 sequence: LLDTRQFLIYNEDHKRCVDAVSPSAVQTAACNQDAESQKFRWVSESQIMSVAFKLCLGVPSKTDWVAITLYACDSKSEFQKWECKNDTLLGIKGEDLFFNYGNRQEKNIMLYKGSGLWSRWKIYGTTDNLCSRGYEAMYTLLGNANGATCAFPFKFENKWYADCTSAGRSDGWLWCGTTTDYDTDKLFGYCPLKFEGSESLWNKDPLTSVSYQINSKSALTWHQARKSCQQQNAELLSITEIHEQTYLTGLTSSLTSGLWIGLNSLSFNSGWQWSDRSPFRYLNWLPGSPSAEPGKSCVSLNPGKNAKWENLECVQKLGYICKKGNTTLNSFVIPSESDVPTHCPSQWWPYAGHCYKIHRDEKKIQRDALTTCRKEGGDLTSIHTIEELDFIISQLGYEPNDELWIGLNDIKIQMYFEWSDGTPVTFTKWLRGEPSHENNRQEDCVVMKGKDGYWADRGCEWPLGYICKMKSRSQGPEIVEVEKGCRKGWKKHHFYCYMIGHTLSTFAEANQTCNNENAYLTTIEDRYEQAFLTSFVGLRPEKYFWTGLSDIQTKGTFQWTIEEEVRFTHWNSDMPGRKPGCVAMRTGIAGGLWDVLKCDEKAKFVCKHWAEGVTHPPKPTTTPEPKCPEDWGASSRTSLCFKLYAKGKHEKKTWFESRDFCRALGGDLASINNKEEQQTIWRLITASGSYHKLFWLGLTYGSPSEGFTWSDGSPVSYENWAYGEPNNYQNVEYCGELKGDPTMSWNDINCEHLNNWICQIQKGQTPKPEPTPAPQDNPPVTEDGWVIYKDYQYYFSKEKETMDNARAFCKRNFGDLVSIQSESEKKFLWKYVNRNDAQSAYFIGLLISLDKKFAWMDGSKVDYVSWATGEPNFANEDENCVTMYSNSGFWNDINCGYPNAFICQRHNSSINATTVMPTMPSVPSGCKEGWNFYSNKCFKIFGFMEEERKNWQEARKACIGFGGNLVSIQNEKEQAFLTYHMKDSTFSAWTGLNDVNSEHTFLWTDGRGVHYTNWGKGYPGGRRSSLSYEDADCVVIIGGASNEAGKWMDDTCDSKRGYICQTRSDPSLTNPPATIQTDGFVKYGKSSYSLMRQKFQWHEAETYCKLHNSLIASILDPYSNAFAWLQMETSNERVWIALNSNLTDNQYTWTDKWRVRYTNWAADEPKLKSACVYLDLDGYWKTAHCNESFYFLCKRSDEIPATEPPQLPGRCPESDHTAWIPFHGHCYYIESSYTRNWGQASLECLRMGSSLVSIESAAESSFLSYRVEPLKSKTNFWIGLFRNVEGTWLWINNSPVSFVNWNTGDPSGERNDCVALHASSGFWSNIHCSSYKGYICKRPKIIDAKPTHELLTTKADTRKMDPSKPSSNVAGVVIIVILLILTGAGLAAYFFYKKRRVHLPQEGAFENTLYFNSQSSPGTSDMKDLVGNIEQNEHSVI

B1: NbhMMRm15.43 (VHH)
VHH: QVQLQESGGTLVQPGGSLRLSCAASGSTFSINNMGWYRQAPGKQRELVAGITGGNTHYADSVKGRFTISRDNAKNTMYLQMNGLKPEDTAVYYCNANWGAYWGQGTQVTVSS
B2: Anti-MMR Nanobody clone 1 (VHH)
VHH: QVQLQESGGGLVQPGGSLRLSCAASGNIFSINAIGWYRQAPGKQRELVATITLSGSTNYADSVKGRFSISRDNAKNTVYLQMNSLKPEDTAVYYCNANTYSDSDVYGYWGQGTQVTVSS
notes: 99mTc-labelled at the His tail in the in vivo experiments; also called Anti-MMR Nb1; Nb MMR cl1

Assays:
[1] = target: T1, Recombinant human MMR (R&D Systems); assay: PE-ELISA, periplasmic extract on coated MMR (1 µg/ml), anti-HA detection
[2] = target: T1, Recombinant human MMR (R&D Systems); assay: PE-ELISA: periplasmic extract on plate coated with 1 µg/ml human MMR, anti-HA and AP-conjugated anti-mouse detection, OD405; background = milk blocking proteins
[3] = target: T2, Human MMR (MRC1) expressed on cells (human); assay: flow cytometry on human immature dendritic cells
[4] = target: T2, Human MMR (MRC1) expressed on cells (human); assay: flow cytometry on CD11c+ human immature monocyte-derived dendritic cells; Alexa Fluor 488 anti-HA detection

Row | Binder | binding [1] | binding [2] | binding [3] | binding [4]
1 | B1 | binds | binds |  | 
2 | B2 |  |  | no binding | no binding (tested: 10 µg/ml)
